From PubChem BioAssay AID2685 (National Center for Advancing Translational Sciences (NCATS), 2010)
The other results are listed elsewhere or left out. The main result of the screen is listed elsewhere. These columns were measured beside it and carry no call. Compounds called inactive in the main read-out are mostly missing here. Potencies come from curve fits of mixed quality, noted in brackets.

Test: qHTS Assay for Lipid Storage Modulators in Drosophila S3 Cells;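 for cell number change: cells counted by Cell Tracker Red CMTPX staining in the red channel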
Details: BODIPY lipid droplet fluorescence, 18-24 h; for cell number change: measured here: cell count max response, cells fed with added oleic acid
Method in brief: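 Laser-scanning cytometry quantifies lipid droplet accumulation (500–530 nm total intensity; droplet/cell object ratio) in oleic acid-fed (400 uM added) Drosophila S3 cells treated with a concentration series. 20 uM Triacsin C defined 100% inhibition.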

[1] = measured here: lipid fluorescence (Fed channel) AC50, cells fed with added oleic acid
[2] = measured here: cell number channel AC50, cells fed with added oleic acid

CCN(CC)S(=O)(=O)c1ccc(N/N=C(\C)c2ccc(OC)cc2O)nc1
cell number change: 9.32%
AC50 [1]: 6.51 µM [rising, single point]

Cc1cccc(Cc2cnc(N3C(=N)SC(c4ccccc4)C3=O)s2)c1 (stereo unspecified)
AC50 [1]: 2.91 µM [falling, full curve]

O=C(/C=C/c1cccs1)NC1CC1
cell number change: 0.122%
AC50 [2]: 0.00461 µM [falling, full curve, poor fit]
AC50 [1]: 23.1 µM [falling, partial curve, poor fit]

O=C(Nc1nc(-c2ccccn2)cs1)C1CC(=O)N(c2ccc3c(c2)OCCO3)C1 (stereo unspecified)
cell number change: 66.7%
AC50 [2]: 29.1 µM [rising, single point]
AC50 [1]: 0.206 µM [rising, full curve, poor fit]

Cc1cc(Cl)ccc1OCC(=O)NCC(c1cccs1)N1CCOCC1 (stereo unspecified)
cell number change: 40.4%
AC50 [2]: 7.31 µM [rising, partial curve, poor fit]
AC50 [1]: 4.61 µM [rising, full curve, poor fit]

O=S(=O)(NCCc1ccc2c(c1)OCCO2)c1cccs1
cell number change: -46.8%
AC50 [2]: 16.4 µM [falling, partial curve, poor fit]

O=C(O)c1cccc(NS(=O)(=O)/C=C/c2ccccc2)c1
cell number change: 17.1%

COc1ccc(N2C(=O)CCC(C(C)=O)=C2C)cc1
cell number change: 4.68%

COC(=O)c1ccc[n+](CC(=O)c2ccc(Br)cc2)c1
cell number change: -39%
AC50 [2]: 32.6 µM [falling, single point]
AC50 [1]: 32.6 µM [falling, single point]

COc1ccc(CCC(=O)O)cc1OC
cell number change: -21.2%

COc1ccc(O)c(/C=N/NC(=S)Nc2cccc(S(=O)(=O)N(C)C)c2)c1
cell number change: 50%
AC50 [2]: 23.1 µM [rising, single point]
AC50 [1]: 29.1 µM [falling, single point]

COc1cc(C(=O)Nc2cc(Cl)ccc2-n2cncn2)ccc1OC(F)F
AC50 [2]: 0.461 µM [rising, single point]

Cc1ccc([N+](=O)[O-])cc1-c1[nH]c(-c2ccc(O)c(O)c2)nc1-c1ccccc1
cell number change: -11.2%

CCC1(C)Cc2ccccc2-c2nc(NN)[nH]c(=O)c21 (stereo unspecified)
cell number change: -33.3%
AC50 [2]: 1.16 µM [falling, full curve]

CCOC(=O)c1c(NC(=O)C2C3C=CC(C3)C2C(=O)O)sc2c1CC(C)(C)OC2 (stereo unspecified)
cell number change: -14%
AC50 [1]: 23.1 µM [falling, single point]

CC(c1ccccc1)c1nnc(NC(=O)Nc2ccccc2F)s1 (stereo unspecified)
AC50 [1]: 1.3 µM [falling, full curve]

COc1cc2c3c(c1)C1(C(=O)N3C(C)(C)C=C2C)C(C#N)=C(N)Oc2cc(O)ccc21 (stereo unspecified)
cell number change: -13.8%
